Values from PubChem BioAssay AID1259327 (Drosophila RNAi Screening Center, 2017)
In all, the deposit lists about 3,100 reagents; shown is a part drawn at random. 378 of them (12%) were called active. 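Hits include both directions; z-score sign shows ATP rise or fall; raw luminescence values are not plate-normalised.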 Entries without a mark were called inactive. Names joined by + are all predicted targets of the reagent. The record does not give: the amount of reagent.

Screen: 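Baseline ATP after transmembrane-protein gene knock-down with water vehicle only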
Cell system: Drosophila S2R+ cells
Knock-down reagent: long dsRNA against Drosophila genes
Time to read-out: 5 days (water added on day 4, read one day later)
Challenge: water added as vehicle, no metal, one day before read-out
Read-out: 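Luciferase ATP signal per well, normalised to plate mean, duplicate average converted to z-score across plates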
Direction: ATP z-score: higher = more total ATP than typical wells; ATP luminescence: higher = more total ATP
Rule for the call: 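Called active when the ATP z-score exceeds 1.5 or falls below -1.5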
Calls: active = hit: ATP up or down; inactive = no clear ATP change

| Target gene | dsRNA | ATP z-score, duplicate mean | ATP luminescence, replicate 1 (RLU) | ATP luminescence, replicate 2 (RLU) |
| --- | --- | --- | --- | --- |
| Sec61alpha | DRSC03256 | 2.36 (active) | 6.78e5 | 6.08e5 |
| Or1a | DRSC18689 | -0.768 | 5.71e5 | 6.64e5 |
| Or1a | DRSC39473 | 1.28 | 6.10e5 | 4.70e5 |
| Tsp2A | DRSC18584 | 0.735 | 7.76e5 | 7.52e5 |
| Tsp2A | DRSC39445 | -0.572 | 4.33e5 | 3.98e5 |
| Nox | DRSC06596 | 0.966 | 6.16e5 | 7.98e5 |
| Nox | DRSC06857 | 0.677 | 7.31e5 | 9.06e5 |
| Nox | DRSC27816 | -1.78 (active) | 8.15e5 | 9.25e5 |
| BBIP1 + CG8135 | DRSC16384 | -0.298 | 3.00e5 | 6.94e5 |
| BBIP1 + CG8135 | DRSC26052 | 0.359 | 9.02e5 | 8.88e5 |
| CG14767 | DRSC06500 | 0.487 | 8.10e5 | 7.55e5 |
| CG14767 | DRSC28418 | -0.662 | 8.25e5 | 6.68e5 |
| pHCl-2 | DRSC14306 | 0.978 | 8.64e5 | 6.42e5 |
| Pdfr | DRSC18614 | -0.404 | 6.81e5 | 6.00e5 |
| Pdfr | DRSC39789 | -1.5 | 4.19e5 | 3.26e5 |
| Alg14 | DRSC19983 | 0.377 | 7.17e5 | 7.45e5 |
| Or33a | DRSC03386 | -0.368 | 7.54e5 | 6.22e5 |
| TM9SF4 | DRSC01888 | 1.48 | 6.30e5 | 5.31e5 |
| TM9SF4 | DRSC39660 | 0.487 | 4.95e5 | 5.02e5 |
| Tollo | DRSC11305 | -0.414 | 9.14e5 | 7.73e5 |
| Tollo | DRSC39718 | -0.187 | 4.83e5 | 4.21e5 |
| robo3 | DRSC00374 | -0.135 | 7.09e5 | 6.75e5 |
| robo3 | DRSC00684 | 0.889 | 7.97e5 | 7.98e5 |
| Or63a | DRSC08681 | -1.55 (active) | 4.78e5 | 4.80e5 |
| Fie | DRSC08158 | 0.519 | 8.01e5 | 7.71e5 |
| Fie | DRSC39856 | 0.977 | 5.95e5 | 7.49e5 |
| Papst2 | DRSC10924 | -2.29 (active) | 4.82e5 | 4.91e5 |
| Papst2 | DRSC27212 | 0.935 | 7.82e5 | 8.71e5 |

Entries listed so far whose target name begins with C or c (2):
| Target gene | dsRNA | ATP z-score, duplicate mean | ATP luminescence, replicate 1 (RLU) | ATP luminescence, replicate 2 (RLU) |
| --- | --- | --- | --- | --- |
| CG14767 | DRSC06500 | 0.487 | 8.10e5 | 7.55e5 |
| CG14767 | DRSC28418 | -0.662 | 8.25e5 | 6.68e5 |
